These results are taken from paper PMC5510181.

Sequences of proteins named here, by UniProt entry; tags and fusion partners are left off. A change or cut given only in a name is not applied to a line headed by its entry.
UniProt P20701: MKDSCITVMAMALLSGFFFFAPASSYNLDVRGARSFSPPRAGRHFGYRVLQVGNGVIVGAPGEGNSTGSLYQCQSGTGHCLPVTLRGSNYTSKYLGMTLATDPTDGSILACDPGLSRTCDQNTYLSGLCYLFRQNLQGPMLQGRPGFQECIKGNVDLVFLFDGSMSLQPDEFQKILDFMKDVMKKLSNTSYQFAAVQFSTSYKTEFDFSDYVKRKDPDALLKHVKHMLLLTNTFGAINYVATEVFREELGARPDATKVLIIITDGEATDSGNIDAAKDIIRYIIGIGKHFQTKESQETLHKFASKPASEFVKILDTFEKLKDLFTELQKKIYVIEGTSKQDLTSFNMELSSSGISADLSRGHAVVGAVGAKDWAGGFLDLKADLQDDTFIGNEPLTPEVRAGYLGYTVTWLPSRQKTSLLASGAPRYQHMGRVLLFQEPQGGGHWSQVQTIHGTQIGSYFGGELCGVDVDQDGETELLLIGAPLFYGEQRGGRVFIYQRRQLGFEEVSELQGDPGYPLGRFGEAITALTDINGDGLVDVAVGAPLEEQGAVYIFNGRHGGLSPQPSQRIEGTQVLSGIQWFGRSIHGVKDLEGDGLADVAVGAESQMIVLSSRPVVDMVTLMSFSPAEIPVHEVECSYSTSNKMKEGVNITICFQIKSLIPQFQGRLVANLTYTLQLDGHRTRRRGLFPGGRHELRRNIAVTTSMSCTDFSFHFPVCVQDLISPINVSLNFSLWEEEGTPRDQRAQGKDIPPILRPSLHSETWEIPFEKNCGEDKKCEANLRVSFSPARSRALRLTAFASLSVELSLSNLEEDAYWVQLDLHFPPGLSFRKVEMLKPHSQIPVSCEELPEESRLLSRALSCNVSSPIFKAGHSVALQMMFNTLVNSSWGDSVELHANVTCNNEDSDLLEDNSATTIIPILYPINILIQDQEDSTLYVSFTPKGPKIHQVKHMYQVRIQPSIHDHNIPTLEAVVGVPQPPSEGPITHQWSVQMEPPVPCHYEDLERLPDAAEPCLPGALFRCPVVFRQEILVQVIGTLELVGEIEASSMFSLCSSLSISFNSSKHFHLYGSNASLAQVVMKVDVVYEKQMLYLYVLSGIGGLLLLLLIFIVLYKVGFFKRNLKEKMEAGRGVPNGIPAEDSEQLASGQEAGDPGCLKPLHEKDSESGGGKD
UniProt P05107: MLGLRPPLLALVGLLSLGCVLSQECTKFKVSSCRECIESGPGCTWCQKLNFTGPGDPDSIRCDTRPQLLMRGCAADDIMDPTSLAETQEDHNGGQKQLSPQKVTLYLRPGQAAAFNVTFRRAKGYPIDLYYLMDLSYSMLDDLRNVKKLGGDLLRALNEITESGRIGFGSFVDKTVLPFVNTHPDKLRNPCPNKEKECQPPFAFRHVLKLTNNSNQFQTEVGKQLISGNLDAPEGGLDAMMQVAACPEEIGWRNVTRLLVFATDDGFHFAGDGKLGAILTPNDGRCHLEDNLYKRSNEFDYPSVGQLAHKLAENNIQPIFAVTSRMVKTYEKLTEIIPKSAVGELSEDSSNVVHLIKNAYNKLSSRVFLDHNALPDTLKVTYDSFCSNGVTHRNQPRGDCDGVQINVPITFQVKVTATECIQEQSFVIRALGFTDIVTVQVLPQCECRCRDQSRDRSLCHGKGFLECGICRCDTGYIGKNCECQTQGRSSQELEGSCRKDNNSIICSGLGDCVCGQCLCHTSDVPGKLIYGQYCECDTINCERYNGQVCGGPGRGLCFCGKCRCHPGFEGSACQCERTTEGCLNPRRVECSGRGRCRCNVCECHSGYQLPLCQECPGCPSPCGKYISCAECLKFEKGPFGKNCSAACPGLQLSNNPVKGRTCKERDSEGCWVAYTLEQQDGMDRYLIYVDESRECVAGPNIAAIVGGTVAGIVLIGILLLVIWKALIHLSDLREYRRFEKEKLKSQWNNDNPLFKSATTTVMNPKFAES
UniProt Q14289: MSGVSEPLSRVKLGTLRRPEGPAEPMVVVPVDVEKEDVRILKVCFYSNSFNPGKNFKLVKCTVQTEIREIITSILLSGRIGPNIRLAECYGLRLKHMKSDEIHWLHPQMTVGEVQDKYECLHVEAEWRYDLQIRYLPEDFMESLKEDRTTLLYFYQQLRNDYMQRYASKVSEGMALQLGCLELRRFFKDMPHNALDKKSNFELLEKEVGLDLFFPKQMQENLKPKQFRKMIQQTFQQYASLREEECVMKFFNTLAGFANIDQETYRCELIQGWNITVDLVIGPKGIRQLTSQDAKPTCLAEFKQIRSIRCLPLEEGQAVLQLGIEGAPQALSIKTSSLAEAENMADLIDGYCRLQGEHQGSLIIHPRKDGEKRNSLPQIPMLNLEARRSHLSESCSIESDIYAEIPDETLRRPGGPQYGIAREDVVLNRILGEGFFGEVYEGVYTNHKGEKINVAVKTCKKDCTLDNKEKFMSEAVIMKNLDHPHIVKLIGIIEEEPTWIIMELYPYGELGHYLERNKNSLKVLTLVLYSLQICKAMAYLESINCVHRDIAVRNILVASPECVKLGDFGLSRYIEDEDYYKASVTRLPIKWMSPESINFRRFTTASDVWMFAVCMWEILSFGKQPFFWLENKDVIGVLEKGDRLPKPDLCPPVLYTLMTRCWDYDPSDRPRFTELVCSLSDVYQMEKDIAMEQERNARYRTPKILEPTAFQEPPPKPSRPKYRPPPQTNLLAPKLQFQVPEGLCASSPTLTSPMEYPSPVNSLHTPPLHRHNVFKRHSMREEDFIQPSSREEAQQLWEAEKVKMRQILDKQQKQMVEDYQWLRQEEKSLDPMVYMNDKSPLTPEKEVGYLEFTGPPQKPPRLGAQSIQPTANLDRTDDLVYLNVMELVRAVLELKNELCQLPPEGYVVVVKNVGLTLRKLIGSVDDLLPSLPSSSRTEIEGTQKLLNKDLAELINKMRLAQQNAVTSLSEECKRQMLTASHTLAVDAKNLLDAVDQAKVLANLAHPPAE
UniProt P62993: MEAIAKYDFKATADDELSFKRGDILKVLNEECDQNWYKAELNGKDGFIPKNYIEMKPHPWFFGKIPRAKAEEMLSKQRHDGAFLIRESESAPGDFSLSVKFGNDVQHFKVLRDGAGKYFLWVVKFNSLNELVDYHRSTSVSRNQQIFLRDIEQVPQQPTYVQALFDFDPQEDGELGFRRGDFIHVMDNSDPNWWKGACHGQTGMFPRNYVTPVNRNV
UniProt Q05397: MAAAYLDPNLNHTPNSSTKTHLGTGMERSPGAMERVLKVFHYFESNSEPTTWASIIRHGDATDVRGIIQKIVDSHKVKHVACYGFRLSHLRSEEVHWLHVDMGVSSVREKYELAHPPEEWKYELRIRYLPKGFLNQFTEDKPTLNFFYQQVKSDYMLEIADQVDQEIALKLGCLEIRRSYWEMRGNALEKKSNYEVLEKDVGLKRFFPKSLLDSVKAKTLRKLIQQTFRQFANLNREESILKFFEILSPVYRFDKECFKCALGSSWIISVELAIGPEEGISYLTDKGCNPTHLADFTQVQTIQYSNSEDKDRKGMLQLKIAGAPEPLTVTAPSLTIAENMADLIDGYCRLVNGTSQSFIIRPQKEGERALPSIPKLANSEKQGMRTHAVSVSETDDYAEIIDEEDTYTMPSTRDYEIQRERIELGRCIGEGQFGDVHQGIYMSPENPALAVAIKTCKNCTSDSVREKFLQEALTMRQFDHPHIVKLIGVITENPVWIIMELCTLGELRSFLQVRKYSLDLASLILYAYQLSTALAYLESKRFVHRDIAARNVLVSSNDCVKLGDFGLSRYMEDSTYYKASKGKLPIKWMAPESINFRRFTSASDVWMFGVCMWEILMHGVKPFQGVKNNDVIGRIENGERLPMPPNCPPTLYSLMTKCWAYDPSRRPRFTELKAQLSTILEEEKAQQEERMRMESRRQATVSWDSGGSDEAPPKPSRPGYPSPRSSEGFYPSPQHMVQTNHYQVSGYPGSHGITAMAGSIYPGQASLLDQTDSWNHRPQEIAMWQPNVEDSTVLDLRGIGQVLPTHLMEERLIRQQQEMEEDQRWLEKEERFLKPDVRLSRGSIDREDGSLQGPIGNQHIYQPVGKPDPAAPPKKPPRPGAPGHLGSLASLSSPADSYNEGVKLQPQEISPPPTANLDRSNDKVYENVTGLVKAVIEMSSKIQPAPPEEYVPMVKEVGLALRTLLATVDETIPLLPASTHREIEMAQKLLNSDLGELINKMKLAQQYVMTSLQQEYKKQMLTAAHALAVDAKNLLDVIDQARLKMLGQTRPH

Results are given in words; binding and its absence hold for the method and conditions named. In cells and extracts the contact can be indirect. Some entries that bind do so weakly or less than the wild type. For some assays here: Where a sequence is shown, tags or fusion partners need not be part of it.

Assay [1] concerns the target T1, Lymphocyte function-associated antigen 1 (LFA-1), endogenous in Jurkat T cells (human (endogenous in Jurkat)) (UniProt P20701+P05107). The experiment in a line: co-IP; detergent lysates of Jurkat T cells ligated with anti-CD3 and/or anti-LFA-1 (5-10 min; some lysates first serially depleted with anti-SKAP1, anti-SLP-76 or anti-PLCγ1; with or without the inhibitor PF573228); precipitation with anti-SKAP1, anti-SLP-76, anti-PLCγ1 or anti-LFA-1, blotting.

For assay [2], the target named is T2, GST-SKAP1 wild-type (UniProt Q86WV1).
T2 sequence: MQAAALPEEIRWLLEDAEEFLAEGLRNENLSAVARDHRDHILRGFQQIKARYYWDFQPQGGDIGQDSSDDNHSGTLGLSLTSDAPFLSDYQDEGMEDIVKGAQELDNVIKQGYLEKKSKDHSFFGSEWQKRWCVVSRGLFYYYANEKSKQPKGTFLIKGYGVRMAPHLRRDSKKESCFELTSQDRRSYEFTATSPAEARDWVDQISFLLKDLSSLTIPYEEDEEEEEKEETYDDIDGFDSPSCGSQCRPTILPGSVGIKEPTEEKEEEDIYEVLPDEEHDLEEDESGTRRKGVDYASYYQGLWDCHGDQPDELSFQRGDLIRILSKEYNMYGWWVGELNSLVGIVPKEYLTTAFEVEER
Kind of assay: pull-down; GST fusion proteins from E. coli incubated 3 h with detergent lysates of transfected 293T cells; SDS-PAGE and western blotting; only the target purified.

Assay [3] has as its target T3, GST-SKAP1 SH3 domain (UniProt Q86WV1).
T3 sequence: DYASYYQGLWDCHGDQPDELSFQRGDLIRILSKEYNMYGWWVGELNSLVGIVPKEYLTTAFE
The assay is described as above.

A further assay concerns the target T4, Flag-tagged SKAP1 (UniProt Q86WV1).
T4 sequence: T2 sequence
The experiment in a line: co-IP; 293T cells co-transfected with Flag-SKAP1 and the partner; precipitation with anti-Flag (legend; anti-SKAP1 in the text), blotting with anti-GFP or anti-Flag.

Assay [4] deals with T2, GST-SKAP1 wild-type. Kind of assay: pull-down; GST fusion proteins from E. coli incubated with lysates of Jurkat cells ligated with anti-LFA-1 for 5 min; blotting with anti-PLCγ1, anti-LAT, anti-GRB-2, anti-ADAP, anti-SLP-76 and anti-GST; only the target purified.
The target of assay [5] is T3, GST-SKAP1 SH3 domain. The assay is described as above.
Assay [6] concerns the target T1, Lymphocyte function-associated antigen 1 (LFA-1), endogenous in Jurkat T cells (human (endogenous in Jurkat)). Kind of assay: condition: only resting cells (rabbit control anti-mouse, no LFA-1 cross-linking); co-IP; resting Jurkat T cells (rabbit control anti-mouse, no LFA-1 cross-linking); anti-LFA-1 precipitation, blotting with anti-FAK1.

Turning to “PYK2 (proline-rich tyrosine kinase-2), endogenous in Jurkat T cells (from UniProt Q14289 1-1009) (enzyme)”, the binding entry in assay [1] was “binds”.

For the substance GFP-GRB2 (from UniProt P62993 1-217), the binding result with GST-SKAP1 wild-type [2] is reported as “binds”; with GST-SKAP1 SH3 domain [3], “no binding”; with Flag-tagged SKAP1, “binds”.

In the case of “GRB2 (growth-factor-receptor-bound protein 2), endogenous in human cells (from UniProt P62993 1-217)”, the binding entry with GST-SKAP1 wild-type [4] was “binds”; with GST-SKAP1 SH3 domain [5], “no binding”.

“FAK1 (Focal Adhesion Kinase 1), endogenous in Jurkat T cells (from UniProt Q05397 1-1052) (enzyme)”: the binding result in assay [6] is listed as “no binding”; in assay [1], “binds”.
